Measured values taken from the supplement of paper PMC10849652.
The list shows a part of the results.

Amino acid sequences for entries named in this document (tags omitted). A change or cut given only in a name is not applied to a line headed by its entry.
UniProt P35219: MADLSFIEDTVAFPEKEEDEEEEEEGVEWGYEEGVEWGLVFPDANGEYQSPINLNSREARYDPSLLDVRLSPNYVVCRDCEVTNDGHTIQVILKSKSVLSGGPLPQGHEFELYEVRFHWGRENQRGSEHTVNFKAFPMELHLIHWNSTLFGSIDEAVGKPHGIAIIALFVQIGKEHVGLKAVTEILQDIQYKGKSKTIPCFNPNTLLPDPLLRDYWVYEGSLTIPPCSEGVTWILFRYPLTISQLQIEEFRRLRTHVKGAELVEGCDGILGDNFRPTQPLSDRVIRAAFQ
UniProt Q96MD7: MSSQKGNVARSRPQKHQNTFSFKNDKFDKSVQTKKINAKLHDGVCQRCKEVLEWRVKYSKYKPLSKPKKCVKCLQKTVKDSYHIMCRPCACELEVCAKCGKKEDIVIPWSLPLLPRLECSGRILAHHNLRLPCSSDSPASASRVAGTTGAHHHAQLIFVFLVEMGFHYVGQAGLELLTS
UniProt Q8N1Q1: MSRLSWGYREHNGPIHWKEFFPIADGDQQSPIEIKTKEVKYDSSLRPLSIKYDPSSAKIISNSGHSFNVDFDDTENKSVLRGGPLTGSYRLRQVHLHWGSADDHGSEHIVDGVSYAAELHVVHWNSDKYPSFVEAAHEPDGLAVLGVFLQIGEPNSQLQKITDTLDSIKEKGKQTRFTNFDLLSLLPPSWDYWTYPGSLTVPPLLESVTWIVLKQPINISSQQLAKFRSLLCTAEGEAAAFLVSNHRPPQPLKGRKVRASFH
UniProt Q9H8G2: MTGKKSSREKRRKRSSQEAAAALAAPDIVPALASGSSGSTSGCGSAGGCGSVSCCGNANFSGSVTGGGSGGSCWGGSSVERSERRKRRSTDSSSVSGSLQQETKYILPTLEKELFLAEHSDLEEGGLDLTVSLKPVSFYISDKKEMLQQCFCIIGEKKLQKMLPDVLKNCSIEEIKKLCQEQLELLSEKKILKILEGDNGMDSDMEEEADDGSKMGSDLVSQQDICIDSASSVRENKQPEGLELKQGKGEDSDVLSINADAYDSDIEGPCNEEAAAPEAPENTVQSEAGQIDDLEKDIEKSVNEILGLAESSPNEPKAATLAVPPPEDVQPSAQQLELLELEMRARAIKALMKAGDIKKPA
UniProt Q9H425: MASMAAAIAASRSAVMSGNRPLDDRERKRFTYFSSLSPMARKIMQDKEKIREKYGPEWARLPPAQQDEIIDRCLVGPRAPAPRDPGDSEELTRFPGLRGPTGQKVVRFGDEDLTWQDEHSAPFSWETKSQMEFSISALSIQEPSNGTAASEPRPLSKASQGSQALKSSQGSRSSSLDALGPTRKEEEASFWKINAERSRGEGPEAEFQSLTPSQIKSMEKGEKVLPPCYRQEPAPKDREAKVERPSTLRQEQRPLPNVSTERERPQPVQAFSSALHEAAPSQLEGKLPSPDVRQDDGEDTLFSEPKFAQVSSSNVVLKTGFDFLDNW
UniProt O14981: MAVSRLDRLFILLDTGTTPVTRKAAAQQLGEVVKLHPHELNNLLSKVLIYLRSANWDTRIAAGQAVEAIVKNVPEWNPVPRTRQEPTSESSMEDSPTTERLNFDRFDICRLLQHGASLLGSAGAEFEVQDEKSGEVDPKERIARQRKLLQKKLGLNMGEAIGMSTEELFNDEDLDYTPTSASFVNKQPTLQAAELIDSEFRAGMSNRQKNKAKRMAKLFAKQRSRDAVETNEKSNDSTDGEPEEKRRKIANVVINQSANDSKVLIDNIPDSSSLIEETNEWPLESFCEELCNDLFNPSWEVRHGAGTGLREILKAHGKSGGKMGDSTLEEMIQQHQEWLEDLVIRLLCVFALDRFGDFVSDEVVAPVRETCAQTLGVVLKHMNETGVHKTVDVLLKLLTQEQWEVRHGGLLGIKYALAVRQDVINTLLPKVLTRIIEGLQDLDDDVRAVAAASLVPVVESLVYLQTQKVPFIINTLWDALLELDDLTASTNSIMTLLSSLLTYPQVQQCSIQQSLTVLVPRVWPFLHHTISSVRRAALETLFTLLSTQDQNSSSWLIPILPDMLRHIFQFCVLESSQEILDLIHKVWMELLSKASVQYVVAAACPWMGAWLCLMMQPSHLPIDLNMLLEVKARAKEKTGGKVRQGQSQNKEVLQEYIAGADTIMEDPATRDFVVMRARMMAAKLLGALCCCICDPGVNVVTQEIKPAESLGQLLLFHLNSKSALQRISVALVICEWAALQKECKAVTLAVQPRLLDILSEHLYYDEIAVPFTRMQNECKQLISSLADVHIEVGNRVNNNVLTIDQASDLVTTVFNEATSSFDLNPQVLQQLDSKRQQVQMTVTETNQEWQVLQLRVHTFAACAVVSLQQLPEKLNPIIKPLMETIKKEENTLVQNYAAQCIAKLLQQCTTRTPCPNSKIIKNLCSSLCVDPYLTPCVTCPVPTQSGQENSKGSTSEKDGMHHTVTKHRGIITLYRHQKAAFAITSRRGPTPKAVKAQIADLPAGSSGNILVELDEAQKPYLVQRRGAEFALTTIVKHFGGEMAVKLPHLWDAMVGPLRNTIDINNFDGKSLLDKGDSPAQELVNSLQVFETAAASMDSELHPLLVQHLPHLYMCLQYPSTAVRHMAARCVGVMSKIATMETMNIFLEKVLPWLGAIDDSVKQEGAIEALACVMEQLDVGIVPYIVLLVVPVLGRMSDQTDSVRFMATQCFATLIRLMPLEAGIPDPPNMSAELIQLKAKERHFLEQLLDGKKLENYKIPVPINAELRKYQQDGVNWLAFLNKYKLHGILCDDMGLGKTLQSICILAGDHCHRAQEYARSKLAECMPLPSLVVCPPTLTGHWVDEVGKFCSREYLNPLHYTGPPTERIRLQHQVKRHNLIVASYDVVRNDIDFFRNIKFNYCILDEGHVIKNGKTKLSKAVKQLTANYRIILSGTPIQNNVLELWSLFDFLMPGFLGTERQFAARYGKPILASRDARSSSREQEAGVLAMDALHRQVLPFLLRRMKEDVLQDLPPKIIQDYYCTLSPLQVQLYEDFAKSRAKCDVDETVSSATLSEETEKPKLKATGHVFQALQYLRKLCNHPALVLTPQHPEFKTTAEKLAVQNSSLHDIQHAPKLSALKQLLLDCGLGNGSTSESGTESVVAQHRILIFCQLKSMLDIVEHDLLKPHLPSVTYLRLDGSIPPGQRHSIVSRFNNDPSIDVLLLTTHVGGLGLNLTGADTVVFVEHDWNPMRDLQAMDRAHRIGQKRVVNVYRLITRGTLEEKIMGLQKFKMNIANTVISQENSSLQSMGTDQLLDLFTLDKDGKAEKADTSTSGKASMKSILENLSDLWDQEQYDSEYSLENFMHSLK
UniProt Q06187: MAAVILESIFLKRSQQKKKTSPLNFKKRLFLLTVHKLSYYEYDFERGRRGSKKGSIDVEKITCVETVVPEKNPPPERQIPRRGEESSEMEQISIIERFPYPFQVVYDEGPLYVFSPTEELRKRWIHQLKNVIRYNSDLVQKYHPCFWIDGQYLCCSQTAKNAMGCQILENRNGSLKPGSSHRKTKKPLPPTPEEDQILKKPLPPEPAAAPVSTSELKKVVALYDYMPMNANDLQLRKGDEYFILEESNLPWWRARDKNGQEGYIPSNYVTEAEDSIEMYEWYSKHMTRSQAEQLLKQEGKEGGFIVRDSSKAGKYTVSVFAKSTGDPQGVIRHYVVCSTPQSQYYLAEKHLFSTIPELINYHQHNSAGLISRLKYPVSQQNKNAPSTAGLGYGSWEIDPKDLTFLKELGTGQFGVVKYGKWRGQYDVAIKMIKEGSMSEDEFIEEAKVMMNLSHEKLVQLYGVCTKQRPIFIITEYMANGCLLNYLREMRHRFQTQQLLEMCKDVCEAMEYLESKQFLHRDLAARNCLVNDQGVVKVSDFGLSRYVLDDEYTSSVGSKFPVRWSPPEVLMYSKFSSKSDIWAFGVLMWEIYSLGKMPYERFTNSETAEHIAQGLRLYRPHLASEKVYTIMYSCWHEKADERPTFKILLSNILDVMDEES
UniProt Q96RR4, whole entry, looked up: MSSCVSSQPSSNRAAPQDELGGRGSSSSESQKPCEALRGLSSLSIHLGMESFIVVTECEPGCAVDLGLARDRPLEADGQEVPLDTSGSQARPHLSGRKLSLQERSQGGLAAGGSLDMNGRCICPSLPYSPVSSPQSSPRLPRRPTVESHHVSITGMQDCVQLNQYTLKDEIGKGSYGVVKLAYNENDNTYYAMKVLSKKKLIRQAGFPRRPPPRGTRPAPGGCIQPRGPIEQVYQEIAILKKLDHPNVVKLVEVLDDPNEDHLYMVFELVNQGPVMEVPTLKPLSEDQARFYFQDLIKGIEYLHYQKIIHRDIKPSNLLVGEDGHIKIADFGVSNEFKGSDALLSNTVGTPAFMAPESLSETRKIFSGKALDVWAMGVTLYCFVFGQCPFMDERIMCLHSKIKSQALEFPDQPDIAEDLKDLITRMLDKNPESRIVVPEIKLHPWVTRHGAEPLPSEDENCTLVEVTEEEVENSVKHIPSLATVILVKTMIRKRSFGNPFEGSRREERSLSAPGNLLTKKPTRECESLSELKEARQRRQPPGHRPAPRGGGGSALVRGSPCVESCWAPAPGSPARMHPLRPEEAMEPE
UniProt P04003: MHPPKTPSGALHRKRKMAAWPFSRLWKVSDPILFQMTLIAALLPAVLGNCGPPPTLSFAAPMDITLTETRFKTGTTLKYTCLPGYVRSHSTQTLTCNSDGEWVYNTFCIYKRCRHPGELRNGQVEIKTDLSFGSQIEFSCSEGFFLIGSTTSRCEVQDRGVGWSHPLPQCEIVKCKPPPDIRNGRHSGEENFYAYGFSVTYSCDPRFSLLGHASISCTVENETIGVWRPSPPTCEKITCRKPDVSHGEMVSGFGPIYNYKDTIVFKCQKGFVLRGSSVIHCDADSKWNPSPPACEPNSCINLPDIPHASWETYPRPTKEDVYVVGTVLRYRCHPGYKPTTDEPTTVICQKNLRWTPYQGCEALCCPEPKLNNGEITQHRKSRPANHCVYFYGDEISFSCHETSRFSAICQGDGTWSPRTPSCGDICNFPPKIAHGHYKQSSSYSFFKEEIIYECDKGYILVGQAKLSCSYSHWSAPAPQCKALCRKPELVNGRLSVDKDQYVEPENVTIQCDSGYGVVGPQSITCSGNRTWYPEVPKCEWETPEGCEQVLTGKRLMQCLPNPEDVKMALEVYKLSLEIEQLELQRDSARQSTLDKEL
UniProt Q5BKX5: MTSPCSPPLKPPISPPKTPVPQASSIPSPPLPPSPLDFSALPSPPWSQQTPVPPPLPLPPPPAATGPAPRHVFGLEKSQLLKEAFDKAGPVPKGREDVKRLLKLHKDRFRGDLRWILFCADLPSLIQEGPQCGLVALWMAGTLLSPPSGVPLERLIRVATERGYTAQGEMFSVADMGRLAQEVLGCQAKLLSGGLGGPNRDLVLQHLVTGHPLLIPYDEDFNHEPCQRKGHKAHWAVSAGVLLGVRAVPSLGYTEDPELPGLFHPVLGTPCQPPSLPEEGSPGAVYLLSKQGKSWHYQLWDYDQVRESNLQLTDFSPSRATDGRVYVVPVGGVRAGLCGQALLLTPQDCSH
UniProt Q13555: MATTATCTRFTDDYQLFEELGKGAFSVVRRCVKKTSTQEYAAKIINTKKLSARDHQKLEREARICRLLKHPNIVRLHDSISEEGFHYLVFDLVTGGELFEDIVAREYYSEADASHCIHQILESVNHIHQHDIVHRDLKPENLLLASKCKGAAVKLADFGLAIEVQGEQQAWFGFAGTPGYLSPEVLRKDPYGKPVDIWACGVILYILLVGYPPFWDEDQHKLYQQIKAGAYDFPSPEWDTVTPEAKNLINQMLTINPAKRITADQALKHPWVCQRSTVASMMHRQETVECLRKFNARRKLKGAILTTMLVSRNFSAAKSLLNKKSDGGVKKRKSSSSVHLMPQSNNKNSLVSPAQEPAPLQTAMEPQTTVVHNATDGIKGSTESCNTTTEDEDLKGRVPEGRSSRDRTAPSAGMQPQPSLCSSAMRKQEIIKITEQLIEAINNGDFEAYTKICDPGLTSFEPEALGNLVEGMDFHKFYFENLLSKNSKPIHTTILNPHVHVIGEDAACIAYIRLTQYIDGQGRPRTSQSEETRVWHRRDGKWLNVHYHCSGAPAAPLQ
UniProt Q7L1Q6: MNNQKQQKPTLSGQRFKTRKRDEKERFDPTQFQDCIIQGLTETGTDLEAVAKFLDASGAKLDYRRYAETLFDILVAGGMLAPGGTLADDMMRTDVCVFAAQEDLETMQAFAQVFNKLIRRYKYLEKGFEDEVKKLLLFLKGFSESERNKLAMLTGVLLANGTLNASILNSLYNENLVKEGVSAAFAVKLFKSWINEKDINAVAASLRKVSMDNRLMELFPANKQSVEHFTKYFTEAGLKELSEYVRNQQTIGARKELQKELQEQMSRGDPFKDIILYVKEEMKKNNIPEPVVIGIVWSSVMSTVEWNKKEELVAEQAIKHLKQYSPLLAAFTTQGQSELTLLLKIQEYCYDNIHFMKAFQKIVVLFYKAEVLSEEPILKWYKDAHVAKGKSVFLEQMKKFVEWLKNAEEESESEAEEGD

Experiments:
Assay in all cases: log2 fold change, soluble protein after heating vs DMSO (PISA); higher = thermal stabilisation; K562 cells, 10 uM, 30 min; active = over 0.2 and 3.5 SD of the protein, either way, in both replicates (recomputed)
[1] = compound: COC1=CC=C(C=C1)CN2C=CC3=C2C=C(C=C3)C(=O)NO
How it was run: (§1)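 K562 cells at 2×10^6 cells/mL were treated with 10 μM compound for 30 min. Aliquots were heated for 3 min across 48°C-58°C, pooled, and extracted in PBS with 0.5% NP-40 at 4°C; soluble protein was the supernatant after 21,000xg for 90 min. Soluble protein was quantified by TMTpro 16plex LC-MS/MS with channel sums equalised, and reported as log2 fold change in thermal stability against DMSO controls, with values from duplicates.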

filanesib = compound: CON(C)C(=O)N1N=C(c2cc(F)ccc2F)S[C@@]1(CCCN)c1ccccc1 [filanesib]
How it was run: as §1

zotarolimus = compound: CO[C@H]1C[C@@H]2CC[C@@H](C)[C@@](O)(O2)C(=O)C(=O)N2CCCC[C@H]2C(=O)O[C@H]([C@H](C)C[C@@H]2CC[C@H](n3cnnn3)[C@H](OC)C2)CC(=O)[C@H](C)/C=C(\C)[C@@H](O)[C@@H](OC)C(=O)[C@H](C)C[C@H](C)/C=C/C=C/C=C/1C [zotarolimus]
How it was run: as §1

idasanutlin = compound: COc1cc(C(=O)O)ccc1NC(=O)[C@@H]1N[C@@H](CC(C)(C)C)[C@](C#N)(c2ccc(Cl)cc2F)[C@H]1c1cccc(Cl)c1F [idasanutlin]
How it was run: as §1

alisertib = compound: COc1cc(Nc2ncc3c(n2)-c2ccc(Cl)cc2C(c2c(F)cccc2OC)=NC3)ccc1C(=O)O [alisertib]
How it was run: as §1

[2] = compound: COc1cc2nc(-c3cc(F)ccc3O)nc(N[C@@H]3CNC[C@H]3C(C)(C)O)c2cc1OC
How it was run: as §1

gefitinib = compound: COc1cc2ncnc(Nc3ccc(F)c(Cl)c3)c2cc1OCCCN1CCOCC1 [gefitinib]
How it was run: as §1

[3] = compound: COc1cccc2cc(-c3nc([C@H]4CC[C@H](C(=O)O)CC4)n4ncnc(N)c34)[nH]c12
How it was run: as §1

lapatinib = compound: CS(=O)(=O)CCNCc1ccc(-c2ccc3ncnc(Nc4ccc(OCc5cccc(F)c5)c(Cl)c4)c3c2)o1 [lapatinib]
How it was run: as §1

pictilisib = compound: CS(=O)(=O)N1CCN(Cc2cc3nc(-c4cccc5[nH]ncc45)nc(N4CCOCC4)c3s2)CC1 [pictilisib]
How it was run: as §1

[4] = compound: CS(=O)(=O)c1ccc(-c2cnc(N)c(C(=O)Nc3ccccc3)n2)cc1
How it was run: as §1

crizotinib = compound: C[C@@H](Oc1cc(-c2cnn(C3CCNCC3)c2)cnc1N)c1c(Cl)ccc(F)c1Cl [crizotinib]
How it was run: as §1

[5] = compound: C[C@@H]1COCCN1C2=NC(=NC(=C2)C3(CC3)S(=O)(=O)C)C4=C5C=CNC5=CC=C4
How it was run: as §1

[6] = compound: C[C@H](C1=CC=C(C=C1)C(=O)NC2=C3C=CNC3=NC=C2)N
How it was run: as §1

gandotinib = compound: Cc1cc(Nc2cc(CN3CCOCC3)c3nc(C)c(Cc4ccc(Cl)cc4F)n3n2)n[nH]1 [gandotinib]
How it was run: as §1

[7] = compound: Cc1cc(SCc2sc(-c3ccc(C(F)(F)F)cc3)nc2C)ccc1OCC(=O)O
How it was run: as §1

doramapimod = compound: Cc1ccc(-n2nc(C(C)(C)C)cc2NC(=O)Nc2ccc(OCCN3CCOCC3)c3ccccc23)cc1 [doramapimod]
How it was run: as §1

ispinesib = compound: Cc1ccc(C(=O)N(CCCN)[C@@H](c2nc3cc(Cl)ccc3c(=O)n2Cc2ccccc2)C(C)C)cc1 [ispinesib]
How it was run: as §1

duvelisib = compound: C[C@H](Nc1ncnc2nc[nH]c12)c1cc2cccc(Cl)c2c(=O)n1-c1ccccc1 [duvelisib]
How it was run: as §1

tozasertib = compound: Cc1cc(Nc2cc(N3CCN(C)CC3)nc(Sc3ccc(NC(=O)C4CC4)cc3)n2)n[nH]1 [tozasertib]
How it was run: as §1

Target	log2 fold change [1]	log2 fold change (filanesib)	log2 fold change (zotarolimus)	log2 fold change (idasanutlin)	log2 fold change (alisertib)	log2 fold change [2]	log2 fold change (gefitinib)	log2 fold change [3]	log2 fold change (lapatinib)	log2 fold change (pictilisib)	log2 fold change [4]	log2 fold change (crizotinib)	log2 fold change [5]	log2 fold change [6]	log2 fold change (gandotinib)	log2 fold change [7]	log2 fold change (doramapimod)	log2 fold change (ispinesib)	log2 fold change (duvelisib)	log2 fold change (tozasertib)
CA8 (UniProt P35219)	inactive: 0.046	inactive: -0.055	inactive: 0.09	inactive: -0.073	inactive: -0.112	inactive: -0.086	inactive: 0.023	inactive: 0.032	inactive: 0.008	inactive: 0.173	inactive: 0.003	inactive: -0.008	inactive: 0.117	inactive: -0.06	inactive: -0.064	inactive: 0.096	inactive: -0.066	inactive: 0.103		
C9orf85 isoform 1 (UniProt Q96MD7)	inactive: 0.127	inactive: 0.067	inactive: 0.052	inactive: 0.199	inactive: 0.231	inactive: -0.114	inactive: 0.235	inactive: -0.014	inactive: 0.143		inactive: -0.039	inactive: -0.124	inactive: 0.046	inactive: 0.024		inactive: -0.052	inactive: 0.113		inactive: 0.087	inactive: -0.01
CA13 (UniProt Q8N1Q1)	inactive: -0.01	inactive: -0.011	inactive: 0.039	inactive: -0.134	inactive: 0.149		inactive: -0.085	inactive: -0.056		inactive: -0.019	inactive: -0.06	inactive: 0.05	inactive: 0.014	inactive: -0.129	inactive: -0.035	inactive: 0.007	inactive: -0.056	inactive: 0.13	inactive: 0.116	inactive: 0.063
CAAP1 (UniProt Q9H8G2)	inactive: -0.118	inactive: 0.18	inactive: -0.074	inactive: 0.119		inactive: -0.033	inactive: -0.17		inactive: 0.055		inactive: 0.059	inactive: -0.015	inactive: -0.064	inactive: -0.09		inactive: -0.123	inactive: -0.006	inactive: -0.073	inactive: -0.083	inactive: 0.011
CALCOCO2 isoform 4 (UniProt Q13137)	inactive: -0.041	inactive: -0.166	inactive: -0.044	inactive: 0.014	inactive: 0	inactive: 0.018	inactive: -0.07	inactive: -0.08	inactive: 0	inactive: 0.031	inactive: 0.026	active: -0.355	inactive: -0.106	inactive: 0.024	inactive: 0.071	inactive: -0.037	inactive: -0.002	inactive: -0.262		
C1orf198 (UniProt Q9H425)	inactive: -0.059	inactive: -0.119	inactive: -0.054	inactive: 0.052	inactive: -0.026	inactive: -0.064	inactive: -0.028	inactive: -0.014	inactive: 0.095	inactive: -0.027	inactive: -0.034	inactive: -0.087	inactive: -0.142	inactive: 0.05	inactive: 0.013	inactive: 0.057	inactive: 0.078	inactive: -0.061	inactive: 0.03	inactive: -0.008
CA1 (UniProt P00915)	inactive: -0.022	inactive: -0.002	inactive: -0.006	inactive: -0.044	inactive: -0.032	inactive: -0.026	inactive: 0.022	inactive: 0.018	inactive: -0.045	inactive: 0.072	inactive: 0.005	inactive: 0	inactive: 0.046	inactive: -0.094	inactive: -0.036	inactive: 0.019	inactive: -0.012	inactive: 0.116		
BTAF1 (UniProt O14981)	inactive: 0.018	inactive: -0.006	inactive: -0.004	inactive: -0.095	inactive: 0.175	inactive: 0.093	inactive: -0.045	inactive: -0.028	inactive: -0.01	inactive: -0.032	inactive: 0.055	inactive: -0.076	inactive: 0.094	inactive: 0.041	inactive: -0.05	inactive: 0.044	inactive: 0.006	inactive: 0.016		
BTK isoform 2 (UniProt Q06187)	inactive: -0.049	inactive: 0.367	inactive: 0.19	inactive: 0.081	inactive: -0.036		inactive: 0.012	inactive: -0.126		inactive: -0.078	inactive: 0.124		inactive: -0.164	inactive: 0.633	inactive: 0.212	inactive: 0.258	inactive: 0.264	inactive: -0.346	inactive: -0.138	inactive: -0.047
BUB1B isoform 3 (UniProt O60566)	inactive: 0.038	inactive: 0.103	inactive: 0.014	inactive: -0.014	inactive: 0.005	inactive: 0.001	inactive: 0.032	inactive: -0.098	inactive: 0.006	inactive: 0.065	inactive: -0.015	inactive: -0.108	inactive: 0.013	inactive: 0.083	inactive: -0.207	inactive: 0.057	inactive: 0.047	inactive: -0.072		
CAMKK2 (UniProt Q96RR4)	inactive: -0.063	inactive: 0.085	inactive: -0.077	inactive: -0.091	inactive: -0.377	inactive: 0.12	inactive: 0.019	inactive: 0.015	inactive: 0.025	inactive: 0.035	inactive: 0	inactive: 0.106	inactive: -0.045	inactive: -0.182	inactive: -0.221	inactive: 0	inactive: 0.086	inactive: -0.204		
C4BPA (UniProt P04003)	inactive: 0.184	inactive: 0.425	inactive: 0.017	inactive: -0.518	inactive: -0.197		inactive: 0.278	inactive: 0.094		inactive: 0.647	inactive: 0.285	inactive: 0.78	inactive: 0.248	inactive: 0.084	inactive: 0.195		inactive: 0.023			inactive: 0.193
C19orf54 (UniProt Q5BKX5)	inactive: -0.025	inactive: -0.278	inactive: 0.024	inactive: -0.094		inactive: 0.123			inactive: -0.125	inactive: 0.053	inactive: -0.026	inactive: 0.025	inactive: 0.182	inactive: 0.127	inactive: -0.073	inactive: 0.032	inactive: -0.061	inactive: -0.091		
CAMK2G isoform 6 (UniProt Q13555)	inactive: -0.018	inactive: 0.269	inactive: 0.039	inactive: -0.101	inactive: -0.173	inactive: -0.032	inactive: -0.006	inactive: -0.204	inactive: 0.12	inactive: 0.141	inactive: -0.02	inactive: -0.146	inactive: -0.064	inactive: -0.116	inactive: -0.041	inactive: -0.004	inactive: 0.073	inactive: 0		
C7 (UniProt P10643)	inactive: -0.042	inactive: 0.286	inactive: -0.276	inactive: 0.182		inactive: -0.202	inactive: -0.006		inactive: -0.021	inactive: -0.057	inactive: -0.181	inactive: 0.195	inactive: 0.17	inactive: 0.134	inactive: -0.178	inactive: -0.046	inactive: 0.084		inactive: -0.101	inactive: -0.019
BZW1 isoform 3 (UniProt Q7L1Q6)	inactive: 0.033	inactive: -0.069	inactive: 0.052	inactive: -0.152	inactive: -0.078	inactive: -0.032	inactive: -0.028	inactive: -0.13	inactive: -0.071	inactive: -0.071	inactive: 0.007	inactive: -0.426	inactive: 0.007	inactive: 0.051	inactive: -0.189	inactive: 0.181	inactive: -0.008	inactive: -0.209		
BZW2 (UniProt Q9Y6E2)	inactive: -0.029	inactive: -0.05	inactive: 0.02	inactive: -0.126	inactive: -0.056	inactive: 0.011	inactive: -0.009	inactive: 0.023	inactive: -0.055	inactive: -0.034	inactive: 0.006	inactive: -0.146	inactive: 0.096	inactive: -0.037	inactive: -0.218	inactive: 0.047	inactive: -0.047	inactive: -0.072		
BYSL (UniProt Q13895)	inactive: -0.033	inactive: 0.078	inactive: 0.065	inactive: -0.057	inactive: 0.022	inactive: 0.207	inactive: -0.03	inactive: -0.057	inactive: 0.032	inactive: -0.022	inactive: -0.003	inactive: -0.049	inactive: 0	inactive: 0.05	inactive: -0.012	inactive: 0.135	inactive: 0.037	inactive: -0.094		

Looked up one by one from the list above:
Target	log2 fold change [1]	log2 fold change (filanesib)	log2 fold change (zotarolimus)	log2 fold change (idasanutlin)	log2 fold change (alisertib)	log2 fold change [2]	log2 fold change (gefitinib)	log2 fold change [3]	log2 fold change (lapatinib)	log2 fold change (pictilisib)	log2 fold change [4]	log2 fold change (crizotinib)	log2 fold change [5]	log2 fold change [6]	log2 fold change (gandotinib)	log2 fold change [7]	log2 fold change (doramapimod)	log2 fold change (ispinesib)	log2 fold change (duvelisib)	log2 fold change (tozasertib)
C19orf54 (UniProt Q5BKX5)	inactive: -0.025	inactive: -0.278	inactive: 0.024	inactive: -0.094		inactive: 0.123			inactive: -0.125	inactive: 0.053	inactive: -0.026	inactive: 0.025	inactive: 0.182	inactive: 0.127	inactive: -0.073	inactive: 0.032	inactive: -0.061	inactive: -0.091		
CA1 (UniProt P00915)	inactive: -0.022	inactive: -0.002	inactive: -0.006	inactive: -0.044	inactive: -0.032	inactive: -0.026	inactive: 0.022	inactive: 0.018	inactive: -0.045	inactive: 0.072	inactive: 0.005	inactive: 0	inactive: 0.046	inactive: -0.094	inactive: -0.036	inactive: 0.019	inactive: -0.012	inactive: 0.116		
